Values from PubChem BioAssay AID743454 (Peter MacCallum Cancer Centre, 2014)
Test: 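Search for knock-downs that restore vorinostat killing in resistant colon cancer cells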 (primary screen). Cells: human HCT116-VR colon cancer cells, selected for vorinostat resistance. Reagents: siRNA pool against human genes, 40 nM siRNA pool. Timing: vorinostat for 24 h, read-out about 72 h after transfection. Conditions: vorinostat at 2.5 µM final. Measured: 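Two measures, CellTiter-Fluor viability and luminescent caspase 3/7 activity, each as fold change against same-plate mock wells, mean of duplicates, then screen-wide robust z-score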. Direction: viability robust z-score: higher = more viable cells than screen typical; caspase robust z-score: higher = more caspase 3/7 activity than screen typical. Active means: 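Hits are knock-downs in viability class RV1/RV2 or caspase class CA1/CA2, excluding ones that killed cells in the no-drug cell-count arm; hits then retested with single siRNAs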.
Here is an unselected part of about 18,000 reagents tested. Over the whole deposit, 450 (2.5%) got an active call. 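Single biological run; no consistent viability z cut-off exists, so the class columns, not z-scores, define the calls.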

Gene | viability hit class | caspase hit class | viability robust z-score | caspase robust z-score | outcome
UPK3B (GeneID 105375355) | no change | no change | -1.23 | 2.62 | inactive
GPD1L (GeneID 23171) | no change | no change | 0.18 | 0.44 | inactive
CYP2C18 (GeneID 1562) | no change | no change | 0.4 | 0.66 | inactive
TMEM106C (GeneID 79022) | no change | no change | -0.6 | 1.14 | inactive
GTF2H2C_2 (GeneID 730394) | no change | no change | 1.12 | -0.78 | inactive
PRKCH (GeneID 5583) | no change | no change | -0.42 | -0.8 | inactive
PSME4 (GeneID 23198) | no change | no change | 0.61 | 0.8 | inactive
ASB5 (GeneID 140458) | no change | no change | -0.14 | 0.01 | inactive
MROH9 (GeneID 80133) | no change | no change | 2.23 | -0.02 | inactive
CCL17 (GeneID 6361) | no change | no change | -3.92 | -0.62 | inactive
ATAD1 (GeneID 84896) | no change | no change | -0.4 | 0.17 | inactive
FLOT1 (GeneID 10211) | no change | no change | 0.27 | 2.8 | inactive
DPY30 (GeneID 84661) | no change | no change | 0.4 | -0.44 | inactive
APLNR (GeneID 187) | no change | no change | 0.24 | -0.3 | inactive
VDAC1 (GeneID 7416) | no change | no change | -0.72 | -0.92 | inactive

Taken from above.
For “viability robust z-score”, MROH9 (GeneID 80133) reads 2.23
GTF2H2C_2 (GeneID 730394), viability hit class = no change
APLNR (GeneID 187), viability robust z-score = 0.24
Result of UPK3B (GeneID 105375355) under “caspase robust z-score”: 2.62
For “outcome”, DPY30 (GeneID 84661) reads inactive
For “caspase hit class”, CCL17 (GeneID 6361) reads no change

More entries:
Gene | viability hit class | caspase hit class | viability robust z-score | caspase robust z-score | outcome
BNIP1 (GeneID 662) | no change | no change | -0.9 | 1.9 | inactive
GLIPR1 (GeneID 11010) | no change | no change | 0.32 | -0.38 | inactive
BEX2 (GeneID 84707) | no change | no change | -0.82 | 0.36 | inactive
MIXL1 (GeneID 83881) | no change | no change | -0.41 | -0.4 | inactive
TSPAN33 (GeneID 340348) | no change | no change | 0.32 | -0.68 | inactive
H2AC8 (GeneID 3012) | no change | no change | 0.2 | -0.34 | inactive
DSC3 (GeneID 1825) | no change | no change | -0.7 | 1.04 | inactive
LGR5 (GeneID 8549) | no change | no change | 0.91 | 0.87 | inactive
HBG1 (GeneID 3047) | no change | no change | 0.73 | 0.01 | inactive
DERL1 (GeneID 79139) | no change | no change | 0.07 | 1.81 | inactive
ZC3H11A (GeneID 9877) | no change | no change | -0.32 | 1.86 | inactive
PRR20A (GeneID 122183) | no change | no change | 0.38 | -0.4 | inactive
UHRF1 (GeneID 29128) | no change | no change | 0.08 | -0.34 | inactive
CUL2 (GeneID 8453) | no change | no change | -0.87 | 0.54 | inactive
ADAM18 (GeneID 8749) | no change | no change | -0.5 | 0.86 | inactive
USP4 (GeneID 7375) | no change | no change | 1.62 | -0.36 | inactive
LAD1 (GeneID 3898) | no change | CA2 (caspase activation) | -0.84 | 6.77 | active
EDA (GeneID 1896) | no change | no change | 1.52 | 1.99 | inactive
NKIRAS2 (GeneID 28511) | no change | no change | 0.52 | 1.25 | inactive
ZFP64 (GeneID 55734) | no change | CA2 (caspase activation) | -1.02 | 7 | active
TGM5 (GeneID 9333) | no change | CA1 (caspase activation) | -1.9 | 5.52 | active
SLC30A5 (GeneID 64924) | no change | no change | -0.3 | -1.02 | inactive
OR10AD1 (GeneID 121275) | no change | no change | 1.11 | -0.64 | inactive
KRT18 (GeneID 3875) | no change | no change | 0.38 | -0.16 | inactive
